Laboratory results as given in publication PMC12486403.
These are yes or no findings as the source states them, for the method shown. Binding seen in cells or lysates may run through a third protein. These calls come from enrichment with a bait or labelling near it, and not all partners need be listed.

Amino acid sequences for entries named in this document (tags omitted).
UniProt Q9Y6M1: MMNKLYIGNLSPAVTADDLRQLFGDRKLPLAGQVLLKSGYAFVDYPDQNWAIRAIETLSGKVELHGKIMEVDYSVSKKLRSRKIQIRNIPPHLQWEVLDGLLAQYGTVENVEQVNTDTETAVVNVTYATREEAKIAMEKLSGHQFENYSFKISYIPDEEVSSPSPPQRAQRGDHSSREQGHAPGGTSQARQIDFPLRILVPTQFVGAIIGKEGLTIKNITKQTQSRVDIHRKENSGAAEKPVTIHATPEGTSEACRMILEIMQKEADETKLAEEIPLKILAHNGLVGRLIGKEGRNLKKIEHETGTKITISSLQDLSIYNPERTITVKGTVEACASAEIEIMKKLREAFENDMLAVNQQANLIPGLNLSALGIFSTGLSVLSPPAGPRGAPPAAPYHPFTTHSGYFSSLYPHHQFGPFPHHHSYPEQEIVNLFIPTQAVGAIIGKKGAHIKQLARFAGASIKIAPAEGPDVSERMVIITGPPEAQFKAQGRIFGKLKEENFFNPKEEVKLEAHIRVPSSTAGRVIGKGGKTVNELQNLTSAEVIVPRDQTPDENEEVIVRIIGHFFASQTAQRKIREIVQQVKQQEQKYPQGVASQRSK
UniProt Q14258: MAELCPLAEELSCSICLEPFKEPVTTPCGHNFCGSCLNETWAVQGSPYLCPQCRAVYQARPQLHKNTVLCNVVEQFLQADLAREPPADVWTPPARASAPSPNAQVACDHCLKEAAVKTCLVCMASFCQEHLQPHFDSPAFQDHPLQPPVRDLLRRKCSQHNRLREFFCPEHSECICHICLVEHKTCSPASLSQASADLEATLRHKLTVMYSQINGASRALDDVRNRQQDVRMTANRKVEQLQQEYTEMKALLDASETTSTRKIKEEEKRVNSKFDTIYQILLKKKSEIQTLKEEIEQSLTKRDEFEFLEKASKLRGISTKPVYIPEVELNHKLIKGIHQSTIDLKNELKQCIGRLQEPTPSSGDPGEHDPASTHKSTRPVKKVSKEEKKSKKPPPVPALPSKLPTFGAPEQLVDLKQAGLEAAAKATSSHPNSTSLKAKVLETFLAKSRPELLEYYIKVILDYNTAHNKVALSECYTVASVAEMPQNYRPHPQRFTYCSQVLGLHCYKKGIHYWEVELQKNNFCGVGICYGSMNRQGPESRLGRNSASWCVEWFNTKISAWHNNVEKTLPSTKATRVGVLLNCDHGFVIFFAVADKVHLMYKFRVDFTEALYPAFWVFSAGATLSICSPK
UniProt P29590: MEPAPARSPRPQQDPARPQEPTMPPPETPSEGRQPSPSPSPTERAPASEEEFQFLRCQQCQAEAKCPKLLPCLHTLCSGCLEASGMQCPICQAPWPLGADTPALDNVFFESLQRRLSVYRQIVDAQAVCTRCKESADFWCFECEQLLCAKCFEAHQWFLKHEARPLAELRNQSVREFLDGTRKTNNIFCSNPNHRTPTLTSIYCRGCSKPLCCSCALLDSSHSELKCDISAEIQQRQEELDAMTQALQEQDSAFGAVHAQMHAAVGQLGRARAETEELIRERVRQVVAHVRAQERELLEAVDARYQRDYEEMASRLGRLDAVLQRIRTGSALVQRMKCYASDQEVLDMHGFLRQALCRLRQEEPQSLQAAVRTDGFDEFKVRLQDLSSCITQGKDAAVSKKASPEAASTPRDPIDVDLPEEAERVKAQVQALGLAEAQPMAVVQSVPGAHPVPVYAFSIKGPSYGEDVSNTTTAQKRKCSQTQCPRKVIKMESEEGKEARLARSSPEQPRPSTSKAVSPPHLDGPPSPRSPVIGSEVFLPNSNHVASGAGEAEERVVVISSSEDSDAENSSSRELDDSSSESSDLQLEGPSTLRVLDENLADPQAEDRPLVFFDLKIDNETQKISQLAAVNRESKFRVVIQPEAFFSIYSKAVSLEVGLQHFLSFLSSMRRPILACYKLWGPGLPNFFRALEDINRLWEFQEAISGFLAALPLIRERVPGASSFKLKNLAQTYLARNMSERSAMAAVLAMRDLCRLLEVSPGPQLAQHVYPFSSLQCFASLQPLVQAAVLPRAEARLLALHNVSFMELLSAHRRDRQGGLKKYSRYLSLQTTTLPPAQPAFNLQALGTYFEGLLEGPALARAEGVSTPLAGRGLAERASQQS

Biological target: HA-IGF2BP2 (insulin-like growth factor 2 mRNA-binding protein 2) (UniProt Q9Y6M1)
Experiment: affinity purification with mass spectrometry; IP-MS in 293T cells transfected with HA-IGF2BP2 or HA-NC; Pierce Co-immunoprecipitation Kit, Pierce IP Lysis Buffer, protein A/G beads, 4 °C overnight

Row | Molecule | binding
1 | TRIM25 (from UniProt Q14258 1-630) | binds
2 | RSF1 (protein, UniProt Q96T23 1-1441) MATAAAAAAVMAPPGCPGSCPNFAVVCSFLERYGPLLDLPELPFPELERVLQAPPPDVGNGEVPKELVELHLKLMRKIGKSVTADRWEKYLIKICQEFNSTWAWEMEKKGYLEMSVECKLALLKYLCECQFDDNLKFKNIINEEDADTMRLQPIGRDKDGLMYWYQLDQDHNVRMYIEEQDDQDGSSWKCIVRNRNELAETLALLKAQIDPVLLKNSSQQDNSSRESPSLEDEETKKEEETPKQEEQKESEKMKSEEQPMDLENRSTANVLEETTVKKEKEDEKELVKLPVIVKLEKPLPENEEKKIIKEESDSFKENVKPIKVEVKECRADPKDTKSSMEKPVAQEPERIEFGGNIKSSHEITEKSTEETEKLKNDQQAKIPLKKREIKLSDDFDSPVKGPLCKSVTPTKEFLKDEIKQEEETCKRISTITALGHEGKQLVNGEVSDERVAPNFKTEPIETKFYETKEESYSPSKDRNIITEGNGTESLNSVITSMKTGELEKETAPLRKDADSSISVLEIHSQKAQIEEPDPPEMETSLDSSEMAKDLSSKTALSSTESCTMKGEEKSPKTKKDKRPPILECLEKLEKSKKTFLDKDAQRLSPIPEEVPKSTLESEKPGSPEAAETSPPSNIIDHCEKLASEKEVVECQSTSTVGGQSVKKVDLETLKEDSEFTKVEMDNLDNAQTSGIEEPSETKGSMQKSKFKYKLVPEEETTASENTEITSERQKEGIKLTIRISSRKKKPDSPPKVLEPENKQEKTEKEEEKTNVGRTLRRSPRISRPTAKVAEIRDQKADKKRGEGEDEVEEESTALQKTDKKEILKKSEKDTNSKVSKVKPKGKVRWTGSRTRGRWKYSSNDESEGSGSEKSSAASEEEEEKESEEAILADDDEPCKKCGLPNHPELILLCDSCDSGYHTACLRPPLMIIPDGEWFCPPCQHKLLCEKLEEQLQDLDVALKKKERAERRKERLVYVGISIENIIPPQEPDFSEDQEEKKKDSKKSKANLLERRSTRTRKCISYRFDEFDEAIDEAIEDDIKEADGGGVGRGKDISTITGHRGKDISTILDEERKENKRPQRAAAARRKKRRRLNDLDSDSNLDEEESEDEFKISDGSQDEFVVSDENPDESEEDPPSNDDSDTDFCSRRLRRHPSRPMRQSRRLRRKTPKKKYSDDDEEEESEENSRDSESDFSDDFSDDFVETRRRRSRRNQKRQINYKEDSESDGSQKSLRRGKEIRRVHKRRLSSSESEESYLSKNSEDDELAKESKRSVRKRGRSTDEYSEADEEEEEEEGKPSRKRLHRIETDEEESCDNAHGDANQPARDSQPRVLPSEQESTKKPYRIESDEEEDFENVGKVGSPLDYSLVDLPSTNGQSPGKAIENLIGKPTEKSQTPKDNSTASASLASNGTSGGQEAGAPEEEEDELLRVTDLVDYVCNSEQL | binds

More lines, now with the values ahead:

Row | binding | Molecule
3 | binds | PML (from UniProt P29590 1-882)
4 | binds | TRIM29 (protein, UniProt Q14134 1-588) MEAADASRSNGSSPEARDARSPSGPSGSLENGTKADGKDAKTTNGHGGEAAEGKSLGSALKPGEGRSALFAGNEWRRPIIQFVESGDDKNSNYFSMDSMEGKRSPYAGLQLGAAKKPPVTFAEKGELRKSIFSESRKPTVSIMEPGETRRNSYPRADTGLFSRSKSGSEEVLCDSCIGNKQKAVKSCLVCQASFCELHLKPHLEGAAFRDHQLLEPIRDFEARKCPVHGKTMELFCQTDQTCICYLCMFQEHKNHSTVTVEEAKAEKETELSLQKEQLQLKIIEIEDEAEKWQKEKDRIKSFTTNEKAILEQNFRDLVRDLEKQKEEVRAALEQREQDAVDQVKVIMDALDERAKVLHEDKQTREQLHSISDSVLFLQEFGALMSNYSLPPPLPTYHVLLEGEGLGQSLGNFKDDLLNVCMRHVEKMCKADLSRNFIERNHMENGGDHRYVNNYTNSFGGEWSAPDTMKRYSMYLTPKGGVRTSYQPSSPGRFTKETTQKNFNNLYGTKGNYTSRVWEYSSSIQNSDNDLPVVQGSSSFSLKGYPSLMRSQSPKAQPQTWKSGKQTMLSHYRPFYVNKGNGIGSNEAP
